Counter-ions that a name gives are not always drawn. The list shows a part of the results. Small differences around the control level are noise.

This assay concerns hPSC-derived cortical neurons (WA09). In words: nucleus area z-score vs screen plate; higher = larger nuclei (more mature). The note with it: 5 µM; treatment: days 7-14 after plating, readout day 21.
With `CCOC(=O)C1=C(C)NC(C)=C(C(=O)OC)C1c1cccc([N+](=O)[O-])c1` (centres undefined) [Nitrendipine], the nucleus area z-score came out at 0.624. The same measure for `C[C@H](Cn1cnc2c(N)ncnc21)OCP(=O)(O)O` [Tenofovir]: 0.169. As for `C=C1CC[C@H](O)C/C1=C/C=C1\CCC[C@]2(C)[C@@H]([C@H](C)CCCC(C)C)CC[C@@H]12` [Vitamin D3], the figure is 0.196; as for `CCCCC(=O)O[C@H]1CC[C@H]2[C@@H]3CCc4cc(O)ccc4[C@H]3CC[C@]12C` [Estradiol valerate], 1.24; as for `O=C(O)c1ccc(-c2c[nH]c3ncc(-c4ccccc4)cc23)cc1C1CCCC1`, 0.433. As for `COc1cc([C@@H]2c3cc4c(cc3[C@@H](O[C@@H]3O[C@@H]5CO[C@@H](C)O[C@H]5[C@H](O)[C@H]3O)[C@H]3COC(=O)[C@H]23)OCO4)cc(OC)c1O` [Etoposide], the figure is -0.64. Regarding `Cc1cc(N2CCOCC2)cc2[nH]c(-c3c(NC[C@@H](O)c4cccc(Cl)c4)cc[nH]c3=O)nc12`, the nucleus area z-score was -1.28.

As to `CC(=O)OCC(=O)[C@@]1(O)CC[C@H]2[C@@H]3CCC4=CC(=O)C=C[C@]4(C)[C@H]3[C@@H](O)C[C@@]21C` [Prednisolone Acetate], the nucleus area z-score was -0.332. The same measure for `Cc1cc(Nc2nc(N[C@@H](C)c3ccc(F)cc3)c(C#N)cc2F)n[nH]1`: -2.87. The same measure for `NC(=O)NO` [Hydroxyurea]: 0.0902; for `Cc1onc(-c2ccccc2)c1-c1ccc(S(N)(=O)=O)cc1` [Valdecoxib]: 0.694; for `O=C(O)/C=C/c1ccc(O)c(O)c1` [Caffeic Acid]: -0.418. `CC[C@]1(O)C[C@@H]2CN(CCc3c([nH]c4ccccc34)[C@@](C(=O)OC)(c3cc4c(cc3OC)N(C)[C@H]3[C@@](O)(C(=O)OC)[C@H](OC(C)=O)[C@]5(CC)C=CCN6CC[C@]43[C@@H]65)C2)C1` [Vinblastine sulfate] came in with a nucleus area z-score of -18.2. As for `CC1(C)CC(=O)c2c(C(F)(F)F)nn(-c3ccc(C(N)=O)c(N[C@H]4CC[C@H](O)CC4)c3)c2C1`, the figure is -13.7. The compound `CCN(Cc1ccncc1)C(=O)C(CO)c1ccccc1` (centres undefined) [Tropicamide] registered a nucleus area z-score of 0.738. With `COc1cc2nc(N3CCCN(C)CC3)nc(NC3CCN(Cc4ccccc4)CC3)c2cc1OC`, the nucleus area z-score is -14.3. As for `c1ccc(CNc2ncnc3[nH]cnc23)cc1` [6-Benzylaminopurine], the figure is 0.908; as for `CN(C)[C@@H]1C(O)=C(C(N)=O)C(=O)[C@@]2(O)C(O)=C3C(=O)c4c(O)ccc(Cl)c4[C@@H](O)[C@H]3C[C@@H]12` [Demeclocycline HCl], 1.22.

As for `CCCCCCCCCCCCCCCC(=O)OC[C@H](O)[C@H]1OC(=O)C(O)=C1O` [L-Ascorbyl 6-palmitate], the nucleus area z-score is -0.117. In turn, `Clc1ccc(C(c2c[nH]c3ccccc23)c2c[nH]c3ccccc23)cc1` registered a nucleus area z-score of -4.53.

Compound `CC(C)(C)c1cc(C(=O)C(C#N)=NNc2cccc(Cl)c2)no1` displayed a nucleus area z-score of 0.671. The same measure for `C[C@H]1CNCCCN1S(=O)(=O)c1cccc2cncc(F)c12` [Ripasudil (K-115) hydrochloride dihydrate]: 1.09; for `Clc1ccc(C(Cn2ccnc2)OCc2csc3c(Cl)cccc23)c(Cl)c1` (centres undefined) [Sertaconazole nitrate]: -1.17.

Regarding `CN1CC[C@H](c2c(O)cc(O)c3c(=O)cc(-c4ccccc4Cl)oc23)[C@H](O)C1` [Flavopiridol HCl], the nucleus area z-score is -14. The same measure for `Cc1cc(F)c(Nc2ncnc3cc(OCc4ccccc4)ccc23)cc1O`: 0.829; for `CCn1c(=O)c2c(nc(/C=C/c3ccc(OC)c(OC)c3)n2C)n(CC)c1=O` [Istradefylline]: -0.0278; for `O=S(=O)(O)c1cc(O)ccc1O` [Ethamsylate]: -0.179. `CCOc1ccc(NC(C)=O)cc1` [Phenacetin] yielded a nucleus area z-score of -0.0649. The same measure for `CC[C@H](C)n1cc(C)c2c(C(=O)NCc3c(C)cc(C)[nH]c3=O)cc(-c3ccc(N4CCNCC4)nc3)cc21`: -0.423; for `CO[C@H]1C(=O)[C@]2(C)[C@@H](OC)C[C@H]3OC[C@@]3(OC(C)=O)[C@H]2[C@H](OC(=O)c2ccccc2)[C@]2(O)C[C@H](OC(=O)[C@H](O)[C@@H](NC(=O)OC(C)(C)C)c3ccccc3)C(C)=C1C2(C)C` [Cabazitaxel]: -1.61. `COC(=O)CCc1ccc(OCC(O)CNC(C)C)cc1` (centres undefined) [Esmolol HCl] had a nucleus area z-score of -11.1. The same measure for `COCCOC(=O)C1=C(C)NC(C)=C(C(=O)OC(C)C)C1c1cccc([N+](=O)[O-])c1` (centres undefined) [Nimodipine]: -0.911; for `C[C@@H]1COCCN1c1cc(C2([S@](C)(=N)=O)CC2)nc(-c2cc[nH]c3nccc2-3)n1`: -0.623.

In turn, `CCOc1ccc2nc(S(N)(=O)=O)sc2c1` [Ethoxzolamide] returned a nucleus area z-score of 0.178.

`COC(=O)C1=C(C)NC(C)=C(C(=O)OCCN2CCN(C(c3ccccc3)c3ccccc3)CC2)C1c1cccc([N+](=O)[O-])c1` (centres undefined) [Manidipine] registered a nucleus area z-score of -2.47. As for `Oc1c(Br)cc(Br)c2cccnc12` [Broxyquinoline], the nucleus area z-score came to 0.0971.

The compound `C[C@H](CCC(=O)O)[C@H]1CC[C@H]2[C@@H]3[C@H](O)C[C@@H]4C[C@H](O)CC[C@]4(C)[C@H]3CC[C@]12C` [Chenodeoxycholic Acid] registered a nucleus area z-score of 0.265. As for `Oc1ccc(Cl)c2cccnc12` [Cloxiquine], the figure is 0.797; as for `CCOC(=O)c1c2c3c(cccc3[nH]c1=O)C(=O)c1ccccc1-2`, -1.15.

For the origin of these results see the supplement of paper PMC11348887.
